The target of this data set is T1, G4 resolvase 1 (G4R1) (UniProt Q9H2U1).
T1 sequence (looked up, limits assumed): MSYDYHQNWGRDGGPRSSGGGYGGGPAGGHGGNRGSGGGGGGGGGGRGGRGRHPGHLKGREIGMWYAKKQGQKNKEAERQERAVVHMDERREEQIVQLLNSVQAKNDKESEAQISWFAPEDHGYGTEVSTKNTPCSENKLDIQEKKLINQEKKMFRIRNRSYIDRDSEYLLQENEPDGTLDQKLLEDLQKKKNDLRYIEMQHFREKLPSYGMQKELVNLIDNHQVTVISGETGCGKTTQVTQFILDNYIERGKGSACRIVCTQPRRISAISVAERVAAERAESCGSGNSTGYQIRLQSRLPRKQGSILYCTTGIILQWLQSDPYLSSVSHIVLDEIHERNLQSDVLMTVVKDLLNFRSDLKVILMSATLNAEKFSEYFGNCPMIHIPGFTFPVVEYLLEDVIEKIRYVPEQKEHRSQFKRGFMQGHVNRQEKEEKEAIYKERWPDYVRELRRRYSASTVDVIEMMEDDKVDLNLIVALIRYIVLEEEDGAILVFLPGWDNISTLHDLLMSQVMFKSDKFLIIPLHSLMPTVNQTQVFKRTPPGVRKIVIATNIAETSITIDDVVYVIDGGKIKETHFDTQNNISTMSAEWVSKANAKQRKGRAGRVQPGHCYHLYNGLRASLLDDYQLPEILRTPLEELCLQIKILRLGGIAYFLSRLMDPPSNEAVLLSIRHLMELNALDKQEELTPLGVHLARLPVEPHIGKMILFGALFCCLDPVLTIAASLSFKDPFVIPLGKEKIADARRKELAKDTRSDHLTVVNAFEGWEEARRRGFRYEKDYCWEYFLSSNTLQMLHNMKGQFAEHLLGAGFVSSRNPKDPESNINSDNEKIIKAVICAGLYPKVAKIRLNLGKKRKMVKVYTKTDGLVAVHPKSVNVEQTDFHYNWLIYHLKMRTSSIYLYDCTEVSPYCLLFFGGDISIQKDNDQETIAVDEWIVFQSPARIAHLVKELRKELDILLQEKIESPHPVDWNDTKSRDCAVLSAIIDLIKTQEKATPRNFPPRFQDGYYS
The experiment in a line: pull-down. The following applies: streptavidin beads, 37 C, 0.5 mM MgCl2, 50 mM NaCl, ATP-dependent elution (purification step); 5' biotin-dT (printed as /5BiodT/, not included in S35); recombinant protein; protein details: His6; label: 5' biotin; folded or branched DNA.

Construct, isoform or probe ends are uncertain for at least one entry. At least one verdict rests on a figure or table, not on a statement of the authors. Where a protein sequence is shown, tags need not be part of it.

Take “GGCCGCTTATGGGGAGGGTGGGGAGGGTGGGGAAGGTGGGGAGGAGACTCA [Biotin c-Myc 51mer]”: the binding result was “binds”.

Source of the values: article PMC4081081 (2014).
